No constants are given. Whether binding was seen depends on the method and setting. Binding seen in cells or lysates may run through a third protein. Some entries that bind do so weakly or less than the wild type.
Target: LgBiT-Gαi1 (UniProt P63096)
Assay: split reporter; NanoBiT complementation in live Ishikawa cells in suspension, 48 h after transfection with SmBiT-βAr1 and LgBiT-Gαi1; furimazine substrate; basal read for 2 min, then FSH (10 nM) added and read over 16 min, once every 17 s; ligand-induced changes as percent of basal

Chains of the proteins cited; added tags and fusions are not shown.
UniProt P63096: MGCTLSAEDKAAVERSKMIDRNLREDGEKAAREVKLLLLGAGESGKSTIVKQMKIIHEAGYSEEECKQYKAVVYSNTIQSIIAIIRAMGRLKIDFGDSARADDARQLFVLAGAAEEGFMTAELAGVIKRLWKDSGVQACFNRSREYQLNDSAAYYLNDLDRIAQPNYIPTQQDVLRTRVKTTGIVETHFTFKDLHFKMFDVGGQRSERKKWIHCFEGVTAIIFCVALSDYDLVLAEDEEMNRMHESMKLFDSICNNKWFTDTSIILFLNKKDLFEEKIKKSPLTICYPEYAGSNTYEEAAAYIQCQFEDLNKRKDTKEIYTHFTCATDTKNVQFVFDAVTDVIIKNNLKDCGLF
UniProt P49407: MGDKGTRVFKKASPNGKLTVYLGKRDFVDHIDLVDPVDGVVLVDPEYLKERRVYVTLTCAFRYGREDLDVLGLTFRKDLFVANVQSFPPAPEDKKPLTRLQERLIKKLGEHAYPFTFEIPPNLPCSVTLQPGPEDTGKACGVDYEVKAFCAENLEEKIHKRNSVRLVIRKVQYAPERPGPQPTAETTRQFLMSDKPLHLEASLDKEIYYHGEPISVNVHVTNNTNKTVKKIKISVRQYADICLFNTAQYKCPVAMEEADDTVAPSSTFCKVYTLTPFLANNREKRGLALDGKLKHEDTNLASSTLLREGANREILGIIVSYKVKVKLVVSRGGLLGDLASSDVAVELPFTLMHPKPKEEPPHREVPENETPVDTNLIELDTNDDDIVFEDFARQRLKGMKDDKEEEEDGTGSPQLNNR

binding: binds
Substance: SmBiT-β-Arrestin 1 (from UniProt P49407 1-418)
